The nature of the experiment: qHTS Assay for Lipid Storage Modulators in Drosophila S3 Cells.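 As to cell number change: cells counted by Cell Tracker Red CMTPX staining in the red channel.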 The following applies: BODIPY lipid droplet fluorescence, 18-24 h; for cell number change: measured here: cell count max response, cells fed with added oleic acid. In a few lines: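 Laser-scanning cytometry quantifies lipid droplet accumulation (500–530 nm total intensity; droplet/cell object ratio) in oleic acid-fed (400 uM added) Drosophila S3 cells treated with a concentration series. 20 uM Triacsin C defined 100% inhibition.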
In general terms: Quantitative high-throughput screening tests each substance at several concentrations.

Setting [1] is: measured here: cell number channel AC50, cells fed with added oleic acid.
The mark [2] stands for this setting: measured here: lipid fluorescence (Fed channel) AC50, cells fed with added oleic acid.

The results in this text go back to PubChem BioAssay AID2685 (National Center for Advancing Translational Sciences (NCATS), 2010).

The list shows a part of the results. These are further read-outs of the screen, such as a control signal, another cell line or another target. No call is given for them. The list favours compounds with an active or inconclusive main result. The note in brackets gives the kind of curve behind each potency; many fits are weak.

In general, AC50 refers to the midpoint of the concentration-response curve, whichever way the signal moves. A low value points to activity at low concentration. `COc1ccc2[nH]cc(C(=O)CCl)c2c1`: the cell number change was -37.9%. For the same compound, the AC50 under setting [1] is 18.4 µM [falling, single point]. In addition, the AC50 under setting [2] is 20.6 µM [falling, single point].
In the case of `CC1CCC(NS(=O)(=O)c2ccc(Cl)nc2)CC1` (centres undefined), the cell number change was -25%. Moreover, under setting [2], the AC50 is 0.00517 µM [falling, full curve, poor fit].
Turning to `COc1ccc(OC)c(C2CC(=O)N3CN(c4ccc(C)c(Cl)c4)CSC3=C2C#N)c1` (centres undefined), the cell number change is -5.77%. The AC50 under setting [2] is 0.103 µM [rising, full curve, poor fit].
As to `OC1CCCN(C(=S)NCc2ccccc2)C1` (centres undefined), the cell number change turned out to be 11.4%.
Consider `CCc1ccc2oc(C(=O)Nc3nonc3CC)c(C)c2c1`, for which the cell number change is 26.6%.
Regarding `Cn1cnc([N+](=O)[O-])c1Oc1ccccc1`, the cell number change was -22.2%. Moreover, the AC50 under setting [2] was 29.1 µM [falling, single point].
On to `Cc1c(C)c2ccc(OCC(=O)NC(Cc3ccc(Cl)cc3)C(=O)O)cc2oc1=O` (centres undefined), for which the cell number change was 2.06%.
`O=C(Nc1ccccc1)N1CCN(Cc2ccc3c(c2)OCO3)CC1`: the cell number change was -27.6%. Besides, under setting [1], the concentration at half-maximal activity (AC50) is 3.66 µM [falling, full curve, poor fit].
On to `CCNc1nc(SCC(=O)OC)nc(N2CCOCC2)n1`, for which the cell number change worked out at 0.873%.
With `C=CCn1c(COc2ccccc2F)nnc1SCC(=O)NC(=O)NCc1ccco1`, the cell number change is -22.2%.
For `CN(Cc1ccccc1)S(=O)(=O)c1cc2c3c(c1)CCN3C(=O)CC2`, the cell number change came out at 70.4%. Further, the AC50 under setting [1] was 20.6 µM [rising, partial curve].
Consider `Cc1ccc(N(CCCCN2C(=O)c3ccccc3C2=O)C(=O)c2cccs2)cc1`, for which the cell number change is -49.3%. Moreover, the AC50 under setting [1] was 29.1 µM [falling, single point]. Besides, the AC50 under setting [2] was 29.1 µM [falling, single point].
With `CC(=O)Nc1ccc(S(=O)(=O)NCCC(=O)NCC2COc3ccccc3O2)cc1` (centres undefined), the cell number change worked out at 18.6%. The AC50 under setting [1] is 0.411 µM [rising, full curve, poor fit].
For the compound `COc1ccccc1N1CCN(S(=O)(=O)c2ccc(NC(C)=O)cc2)CC1`, the cell number change is -4.67%. Further, under setting [2], the AC50 was 6.51 µM [rising, single point].
For the compound `COc1ccc(-c2ccc(SCC(=O)NC3CCCCC3)nn2)cc1`, the cell number change is 9.83%. Moreover, under setting [2], the AC50 is 6.51 µM [rising, partial curve].
For the compound `C[C@H]1COc2c(C3(N)CC3)c(F)cc3c(=O)c(C(=O)O)cn1c23`, the cell number change was -37.8%. The AC50 under setting [1] was 4.11 µM [falling, full curve]. The AC50 under setting [2] is 0.146 µM [falling, full curve].
On to `COC(=O)c1ccccc1NC(=O)CSc1nnnn1CC(=O)O`, for which the cell number change is -2.63%. For the same compound, the AC50 under setting [1] was 0.231 µM [rising, partial curve].
As for `CCOC(=O)c1nn(-c2ccc(Cl)cc2)c2nc(Nc3ccccc3)cc(=O)n12`, the AC50 under setting [2] was 0.58 µM [rising, single point].
Take `CC(=O)N1CCCN(Cc2cn(-c3cccc(C)c3)nc2-c2cccc(F)c2)CC1`: the cell number change stood at 19.2%.
With `COc1cc(/C=N/NC(=O)CN(Cc2ccccc2)S(=O)(=O)c2ccc3c(c2)OCCO3)ccc1O`, the cell number change was -2.38%. The AC50 under setting [1] is 3.26 µM [rising, single point]. Moreover, the AC50 under setting [2] is 1.16 µM [rising, partial curve].
In the case of `O=C(Cc1csc(NC(=O)Nc2cccc(Cl)c2)n1)NCc1cccnc1`, the AC50 under setting [1] was 0.13 µM [falling, partial curve, poor fit].
Take `COc1ccc(CC(C(=O)Nc2cccc(F)c2)c2nn[nH]n2)c(OC)c1` (centres undefined): the cell number change was -35.2%. Under setting [1], the AC50 was 20.6 µM [falling, partial curve, poor fit]. For the same compound, under setting [2], the AC50 was 29.1 µM [falling, single point].
For the compound `CCCCNC(=O)Cn1c(=O)oc2cc(S(=O)(=O)N3CC(C)CC(C)C3)ccc21` (centres undefined), the cell number change amounted to 8.26%.
Turning to `O=C(NC(C(=O)N/N=C/c1cccc2ccccc12)c1n[nH]c(=O)c2ccccc12)c1ccccc1` (centres undefined), the cell number change is -33.5%. In addition, under setting [2], the AC50 was 32.6 µM [falling, partial curve, poor fit].
In the case of `CCN1C(=O)C(CC(=O)Nc2ccc(F)cc2)N(Cc2ccco2)C1=S` (centres undefined), the cell number change was -49.5%.
For `C=CCOc1ccc(C(=O)Nc2ccccc2C(=O)NCc2cccnc2)cc1`, under setting [2], the AC50 is 2.24 µM [falling, partial curve].
For the compound `Cc1ccc(S(=O)(=O)N2CCOC2CNC(=O)C(=O)NCCCc2ccccc2)cc1` (centres undefined), the cell number change is -19.6%. The AC50 under setting [2] was 16.4 µM [falling, single point].
For the compound `Cn1c(=O)c2c(nc(NCc3ccc4c(c3)OCO4)n2Cc2ccccc2)n(C)c1=O`, the cell number change was -93.9%.
`COc1cccc(NC(=O)CN(C)C(=O)c2cc(S(=O)(=O)NCc3ccccc3)ccc2C)c1`: the cell number change is -22.1%. Further, under setting [2], the AC50 was 6.51 µM [rising, single point].
On to `COC(=O)[C@H](CCSC)NC(=O)NCc1ccccn1`, for which the cell number change was -31.4%. Moreover, the AC50 under setting [1] is 0.146 µM [falling, full curve, poor fit].
Take `CC(=O)c1ccc(NC(=S)N2CCN(S(=O)(=O)c3ccc(F)cc3)CC2)cc1`: the cell number change is 3.45%.
With `COc1ccccc1-c1nc(S(=O)(=O)c2ccccc2)c(N2CCCCC2)o1`, the AC50 under setting [2] was 2.51 µM [falling, partial curve].
As to `CCCCCOC(=O)Cn1c(SCC(=O)Nc2ccccc2)nc2c1c(=O)[nH]c(=O)n2C`, the cell number change worked out at 53.3%. In addition, under setting [1], the AC50 is 11.6 µM [rising, partial curve]. Moreover, under setting [2], the AC50 is 29.1 µM [rising, single point].
For the compound `Cc1cc(C)nc(-n2ncc3c2CC(c2ccc(C(C)C)cc2)CC3=O)n1` (centres undefined), the cell number change is 8.97%. The AC50 under setting [2] was 2.59 µM [rising, single point].
In the case of `CO/N=C/c1ccc(N2CCN(C(=O)c3ccc(F)cc3)CC2)c([N+](=O)[O-])c1`, the cell number change is -114%. Besides, the AC50 under setting [1] is 29.1 µM [falling, single point]. The AC50 under setting [2] was 29.1 µM [falling, single point].
On to `Cc1cccc2sc(NC(=O)C3CCCN(S(=O)(=O)c4cccc5nonc45)C3)nc12` (centres undefined), for which the cell number change is -29.8%. Besides, the AC50 under setting [2] was 13 µM [falling, partial curve].
Regarding `COC(=O)CN1C(=O)COc2ccc(S(=O)(=O)NCc3ccccc3)cc21`, the cell number change was 7.74%.
As for `Cn1c(NCc2ccc(Cl)cc2)nc2ccccc21`, the AC50 under setting [2] is 0.103 µM [rising, partial curve, poor fit].
Regarding `CCOc1ccccc1NS(=O)(=O)c1ccc(-c2cnc(C3CC3)o2)cc1`, the cell number change was -36.7%. For the same compound, the AC50 under setting [1] was 20.6 µM [falling, single point].
As for `CCCn1cc(S(=O)(=O)c2ccc(OC)cc2)c(=O)c2cc(OC)ccc21`, the cell number change was -4.95%.
On to `O=C(NNC(=S)Nc1ccc(F)cc1F)c1ccco1`, for which the cell number change was -14.4%.
With `CC(=O)Nc1ccc(Oc2ccc(S(=O)(=O)N3CCCC3)cn2)cc1`, the cell number change turned out to be 2.73%. In addition, under setting [1], the AC50 is 0.231 µM [falling, partial curve, poor fit].
For the compound `CCCn1c(=N)n(CC(=O)c2ccc(Cl)cc2)c2ccccc21`, the cell number change came out at 1.05%.
For `Cc1c(OCc2ccccc2)c(=O)ccn1Cc1ccc(Cl)cc1`, the cell number change was -64.9%. Further, the AC50 under setting [1] is 18.4 µM [falling, single point]. Moreover, under setting [2], the AC50 is 29.1 µM [falling, single point].
Turning to `CCOc1cccc(N(C(=O)CCC(=O)Nc2cc(C)on2)C(C(=O)NC(C)(C)C)c2ccc(OC)cc2)c1` (centres undefined), the cell number change is -1.28%. In addition, under setting [2], the AC50 was 5.17 µM [rising, single point].
For `O=C(CSc1nc2ccc(Cl)cc2[nH]1)NCc1ccco1`, the cell number change was found to be 0.0701%.
For the compound `COCCNC(=O)Cn1cc(C(=O)c2ccco2)c2ccccc21`, the cell number change was determined as 18.7%. Moreover, the AC50 under setting [1] was 0.461 µM [falling, single point].
On to `Cc1[nH]n(-c2ccccc2)c(=O)c1N=Nc1cccc(Cl)c1`, for which the cell number change was -5.96%. Further, the AC50 under setting [2] was 3.26 µM [falling, single point].
For `C[C@H](NC(=O)c1nc[nH]c1C(=O)N[C@@H](CCCCNC(=O)OC(C)(C)C)C(=O)OC(C)(C)C)C(=O)OCc1ccccc1`, the cell number change amounted to 44.6%. The AC50 under setting [2] is 25.9 µM [falling, single point].
`Cc1ccc(-n2ncc3c2CCCC3NC(=O)c2csnn2)cc1C` (centres undefined): the cell number change was -23.1%. The AC50 under setting [1] is 0.0103 µM [falling, full curve, poor fit]. The AC50 under setting [2] is 0.0058 µM [falling, full curve].
As for `CCOc1nc(Nc2ccc([N+](=O)[O-])cc2)nc(NC(C)(C)C)n1`, the cell number change was found to be 14.1%. The AC50 under setting [1] is 3.66 µM [rising, partial curve].
For the compound `CCCCCC(=O)NC(=S)Nc1ccc(Cl)cn1`, the cell number change turned out to be 6.32%. Under setting [2], the AC50 is 0.00461 µM [falling, full curve].
With `Cc1nc(N)nc(-c2ccccc2O)n1`, the cell number change was determined as 46.4%. The AC50 under setting [1] was 2.59 µM [rising, partial curve].
With `COc1cccc(NC(=O)CN2CCc3ccccc3C2)c1`, the cell number change was -4.23%. Moreover, the AC50 under setting [2] is 8.2 µM [rising, partial curve].
In the case of `COc1cccc(CSc2nc3sc(C)c(C)c3c(=O)n2Cc2ccco2)c1`, the cell number change was -1.35%. The AC50 under setting [2] is 29.1 µM [rising, single point].
In the case of `Cc1nc(N)ncc1C(=O)Nc1ccccc1`, the cell number change was 6.51%. Moreover, the AC50 under setting [2] is 2.59 µM [falling, partial curve].
As for `CCOc1cc(S(=O)(=O)NCc2ccc3c(c2)OCO3)c(C)cc1C`, the cell number change is -7.08%.
Take `COC(=O)c1ccc(C(=O)OC)c(NC(=O)COC(=O)c2ccccc2OC)c1`: the cell number change is -48.2%. Also, the AC50 under setting [1] is 29.1 µM [falling, single point].
For the compound `COC(=O)CSc1nnc(CNS(=O)(=O)c2ccc(Cl)cc2)n1C`, the AC50 under setting [2] was 23.1 µM [falling, partial curve].
`COC(=O)c1c(C)oc2ccc(N(C(=O)c3ccncc3)S(=O)(=O)c3ccc(C)cc3)cc12`: the cell number change is -32.6%. Also, the AC50 under setting [2] was 1.64 µM [rising, partial curve].
For `Cc1cc(NC(=O)COc2ccccc2C)ccc1NC(=O)c1cccs1`, the cell number change is -38.9%. The AC50 under setting [1] is 5.8 µM [falling, partial curve, poor fit].
Regarding `COC(=O)CSc1nsc(SCC(=O)OC)c1C#N`, the cell number change was -89.3%. Besides, the half-maximal activity concentration (AC50) under setting [1] was 29.1 µM [falling, single point].
On to `COc1ccc(-n2c(O)c(C=NCC(c3ccco3)N3CCCC3)c3ccccc3c2=O)cc1OC` (centres undefined), for which the cell number change turned out to be 20.5%. Moreover, the AC50 under setting [1] was 2.06 µM [falling, partial curve]. Also, the AC50 under setting [2] was 0.731 µM [falling, single point].
